Data taken from PMC4118132.

Protein sequences, listed by entry. Tags and fused reporters are not part of them.
UniProt P60228: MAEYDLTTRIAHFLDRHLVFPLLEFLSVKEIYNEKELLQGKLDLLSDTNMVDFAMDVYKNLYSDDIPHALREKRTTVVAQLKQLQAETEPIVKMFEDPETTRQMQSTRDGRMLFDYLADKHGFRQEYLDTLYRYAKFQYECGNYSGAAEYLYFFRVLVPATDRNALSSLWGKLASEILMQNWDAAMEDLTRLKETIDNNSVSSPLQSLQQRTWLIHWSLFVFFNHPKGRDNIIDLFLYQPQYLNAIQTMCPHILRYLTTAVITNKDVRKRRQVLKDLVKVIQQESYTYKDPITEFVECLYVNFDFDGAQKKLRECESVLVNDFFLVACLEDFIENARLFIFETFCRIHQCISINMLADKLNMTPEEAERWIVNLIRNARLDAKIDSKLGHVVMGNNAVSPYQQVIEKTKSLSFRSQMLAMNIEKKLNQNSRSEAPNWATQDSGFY
UniProt Q14240: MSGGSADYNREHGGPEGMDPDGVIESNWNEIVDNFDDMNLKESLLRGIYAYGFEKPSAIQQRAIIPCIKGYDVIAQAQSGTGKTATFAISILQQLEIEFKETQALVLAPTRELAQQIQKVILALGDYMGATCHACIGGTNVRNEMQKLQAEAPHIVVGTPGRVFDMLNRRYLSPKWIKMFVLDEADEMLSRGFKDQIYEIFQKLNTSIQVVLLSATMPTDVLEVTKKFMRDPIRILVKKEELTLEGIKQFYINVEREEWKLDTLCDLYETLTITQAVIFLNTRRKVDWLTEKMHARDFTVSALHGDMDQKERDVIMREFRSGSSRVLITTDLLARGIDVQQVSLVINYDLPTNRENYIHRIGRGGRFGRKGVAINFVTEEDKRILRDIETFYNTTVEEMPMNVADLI
UniProt O15372: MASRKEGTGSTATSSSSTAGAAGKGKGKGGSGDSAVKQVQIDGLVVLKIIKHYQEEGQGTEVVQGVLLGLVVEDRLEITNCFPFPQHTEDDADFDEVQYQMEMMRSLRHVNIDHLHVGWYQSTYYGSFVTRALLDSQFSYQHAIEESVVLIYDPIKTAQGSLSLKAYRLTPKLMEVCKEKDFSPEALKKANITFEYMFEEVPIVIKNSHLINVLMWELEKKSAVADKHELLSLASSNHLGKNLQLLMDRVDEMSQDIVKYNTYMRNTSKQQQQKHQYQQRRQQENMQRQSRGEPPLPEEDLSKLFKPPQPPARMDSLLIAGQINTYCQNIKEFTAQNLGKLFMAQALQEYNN
UniProt Q99613: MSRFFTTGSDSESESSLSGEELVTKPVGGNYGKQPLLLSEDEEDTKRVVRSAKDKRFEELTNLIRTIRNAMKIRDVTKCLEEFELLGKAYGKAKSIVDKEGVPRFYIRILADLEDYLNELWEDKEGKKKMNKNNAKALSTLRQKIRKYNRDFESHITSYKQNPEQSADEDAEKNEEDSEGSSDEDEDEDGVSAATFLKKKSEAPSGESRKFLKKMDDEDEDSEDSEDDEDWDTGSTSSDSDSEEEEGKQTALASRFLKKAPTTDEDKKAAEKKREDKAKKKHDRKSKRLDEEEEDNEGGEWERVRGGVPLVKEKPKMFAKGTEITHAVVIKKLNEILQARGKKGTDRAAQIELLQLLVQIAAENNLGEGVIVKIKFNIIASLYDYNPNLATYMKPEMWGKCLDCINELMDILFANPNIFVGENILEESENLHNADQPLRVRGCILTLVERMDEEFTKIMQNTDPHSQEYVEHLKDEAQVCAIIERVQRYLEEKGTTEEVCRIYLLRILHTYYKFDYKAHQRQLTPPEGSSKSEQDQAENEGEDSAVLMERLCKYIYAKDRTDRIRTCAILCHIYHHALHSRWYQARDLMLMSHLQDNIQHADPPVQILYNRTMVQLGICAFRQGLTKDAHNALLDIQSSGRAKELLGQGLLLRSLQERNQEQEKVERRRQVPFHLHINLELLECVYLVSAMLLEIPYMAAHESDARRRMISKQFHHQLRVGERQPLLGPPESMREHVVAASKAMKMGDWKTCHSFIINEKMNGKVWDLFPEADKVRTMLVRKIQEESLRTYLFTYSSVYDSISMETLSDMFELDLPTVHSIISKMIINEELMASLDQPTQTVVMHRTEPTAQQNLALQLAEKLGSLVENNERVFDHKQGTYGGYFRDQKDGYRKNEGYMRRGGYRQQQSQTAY
UniProt O15371: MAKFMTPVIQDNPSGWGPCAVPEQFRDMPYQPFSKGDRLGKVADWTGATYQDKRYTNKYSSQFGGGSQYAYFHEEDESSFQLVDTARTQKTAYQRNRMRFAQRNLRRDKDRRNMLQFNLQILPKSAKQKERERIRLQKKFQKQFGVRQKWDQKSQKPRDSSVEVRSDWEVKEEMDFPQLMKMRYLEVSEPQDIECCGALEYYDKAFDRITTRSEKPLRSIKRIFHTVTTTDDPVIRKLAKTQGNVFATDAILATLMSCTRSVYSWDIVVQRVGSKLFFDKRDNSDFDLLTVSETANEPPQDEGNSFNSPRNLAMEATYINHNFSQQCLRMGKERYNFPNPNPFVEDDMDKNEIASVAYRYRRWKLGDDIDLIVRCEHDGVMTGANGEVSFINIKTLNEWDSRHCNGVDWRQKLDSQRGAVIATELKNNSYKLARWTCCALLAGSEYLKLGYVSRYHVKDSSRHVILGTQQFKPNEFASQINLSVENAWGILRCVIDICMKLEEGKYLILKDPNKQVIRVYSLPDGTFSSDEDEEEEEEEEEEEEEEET
UniProt O00303: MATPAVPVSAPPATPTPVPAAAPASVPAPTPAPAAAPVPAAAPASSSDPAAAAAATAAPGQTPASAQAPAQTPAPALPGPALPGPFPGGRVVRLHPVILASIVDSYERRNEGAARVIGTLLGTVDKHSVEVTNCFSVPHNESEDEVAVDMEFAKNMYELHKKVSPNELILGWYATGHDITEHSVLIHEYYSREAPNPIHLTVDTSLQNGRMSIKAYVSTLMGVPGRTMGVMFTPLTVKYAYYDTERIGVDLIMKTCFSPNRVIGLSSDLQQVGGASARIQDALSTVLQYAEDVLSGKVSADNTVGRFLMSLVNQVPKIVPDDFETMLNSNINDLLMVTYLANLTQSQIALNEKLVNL
UniProt Q13347: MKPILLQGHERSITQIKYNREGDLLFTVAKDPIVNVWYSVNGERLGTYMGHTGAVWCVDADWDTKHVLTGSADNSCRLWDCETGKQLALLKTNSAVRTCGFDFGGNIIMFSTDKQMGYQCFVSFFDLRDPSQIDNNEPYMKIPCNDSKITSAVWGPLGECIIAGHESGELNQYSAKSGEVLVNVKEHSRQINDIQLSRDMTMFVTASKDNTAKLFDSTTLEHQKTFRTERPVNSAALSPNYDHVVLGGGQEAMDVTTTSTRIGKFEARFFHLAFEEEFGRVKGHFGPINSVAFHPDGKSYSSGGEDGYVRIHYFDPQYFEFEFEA
UniProt O43432: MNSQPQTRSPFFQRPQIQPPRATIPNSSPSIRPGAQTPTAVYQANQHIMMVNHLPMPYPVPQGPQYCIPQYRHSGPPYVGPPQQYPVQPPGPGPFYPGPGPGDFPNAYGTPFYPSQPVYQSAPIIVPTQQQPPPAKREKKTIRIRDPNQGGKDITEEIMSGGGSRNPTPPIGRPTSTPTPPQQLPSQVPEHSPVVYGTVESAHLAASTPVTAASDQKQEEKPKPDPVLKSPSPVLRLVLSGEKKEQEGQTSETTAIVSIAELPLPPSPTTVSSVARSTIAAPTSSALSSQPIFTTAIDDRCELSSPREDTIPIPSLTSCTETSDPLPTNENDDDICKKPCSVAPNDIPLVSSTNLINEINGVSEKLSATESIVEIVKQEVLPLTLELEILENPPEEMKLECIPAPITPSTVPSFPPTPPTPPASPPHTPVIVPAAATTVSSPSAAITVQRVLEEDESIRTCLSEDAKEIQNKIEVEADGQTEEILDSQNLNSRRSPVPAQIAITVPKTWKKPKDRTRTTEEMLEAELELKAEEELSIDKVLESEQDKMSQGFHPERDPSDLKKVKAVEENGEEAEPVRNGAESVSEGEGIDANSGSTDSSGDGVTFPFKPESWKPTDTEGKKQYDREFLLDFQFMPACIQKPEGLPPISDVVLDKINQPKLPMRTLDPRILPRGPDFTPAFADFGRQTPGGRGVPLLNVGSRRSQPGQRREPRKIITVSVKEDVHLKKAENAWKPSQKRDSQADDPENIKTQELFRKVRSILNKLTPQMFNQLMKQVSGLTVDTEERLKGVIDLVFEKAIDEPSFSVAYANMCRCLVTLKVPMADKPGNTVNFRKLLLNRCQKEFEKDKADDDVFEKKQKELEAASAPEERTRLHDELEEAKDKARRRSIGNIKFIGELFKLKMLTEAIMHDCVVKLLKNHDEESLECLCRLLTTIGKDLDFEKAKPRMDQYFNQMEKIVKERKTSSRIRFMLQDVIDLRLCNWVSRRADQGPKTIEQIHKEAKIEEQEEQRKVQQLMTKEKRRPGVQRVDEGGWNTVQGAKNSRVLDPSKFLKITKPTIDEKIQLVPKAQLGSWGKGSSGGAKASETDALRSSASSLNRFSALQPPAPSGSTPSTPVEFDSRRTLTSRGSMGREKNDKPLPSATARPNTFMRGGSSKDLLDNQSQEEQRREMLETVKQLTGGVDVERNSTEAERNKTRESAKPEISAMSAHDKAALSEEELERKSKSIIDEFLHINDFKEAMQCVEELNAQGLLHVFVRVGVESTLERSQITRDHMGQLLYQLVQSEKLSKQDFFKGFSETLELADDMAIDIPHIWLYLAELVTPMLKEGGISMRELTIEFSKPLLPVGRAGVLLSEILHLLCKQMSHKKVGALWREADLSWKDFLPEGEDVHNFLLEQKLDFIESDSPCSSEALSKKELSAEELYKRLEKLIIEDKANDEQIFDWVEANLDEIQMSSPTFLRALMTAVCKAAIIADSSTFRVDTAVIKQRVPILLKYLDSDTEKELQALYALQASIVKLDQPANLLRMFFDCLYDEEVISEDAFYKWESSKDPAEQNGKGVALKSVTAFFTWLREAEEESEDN
UniProt O75821: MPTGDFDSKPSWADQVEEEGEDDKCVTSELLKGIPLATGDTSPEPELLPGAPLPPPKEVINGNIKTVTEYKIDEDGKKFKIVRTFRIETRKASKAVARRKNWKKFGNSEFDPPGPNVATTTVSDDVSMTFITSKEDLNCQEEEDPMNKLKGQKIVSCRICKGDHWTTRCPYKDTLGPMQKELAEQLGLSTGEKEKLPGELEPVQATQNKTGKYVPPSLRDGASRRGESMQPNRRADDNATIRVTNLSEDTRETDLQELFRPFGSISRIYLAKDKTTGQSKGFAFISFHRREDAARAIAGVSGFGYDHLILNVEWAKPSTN
UniProt Q9Y262: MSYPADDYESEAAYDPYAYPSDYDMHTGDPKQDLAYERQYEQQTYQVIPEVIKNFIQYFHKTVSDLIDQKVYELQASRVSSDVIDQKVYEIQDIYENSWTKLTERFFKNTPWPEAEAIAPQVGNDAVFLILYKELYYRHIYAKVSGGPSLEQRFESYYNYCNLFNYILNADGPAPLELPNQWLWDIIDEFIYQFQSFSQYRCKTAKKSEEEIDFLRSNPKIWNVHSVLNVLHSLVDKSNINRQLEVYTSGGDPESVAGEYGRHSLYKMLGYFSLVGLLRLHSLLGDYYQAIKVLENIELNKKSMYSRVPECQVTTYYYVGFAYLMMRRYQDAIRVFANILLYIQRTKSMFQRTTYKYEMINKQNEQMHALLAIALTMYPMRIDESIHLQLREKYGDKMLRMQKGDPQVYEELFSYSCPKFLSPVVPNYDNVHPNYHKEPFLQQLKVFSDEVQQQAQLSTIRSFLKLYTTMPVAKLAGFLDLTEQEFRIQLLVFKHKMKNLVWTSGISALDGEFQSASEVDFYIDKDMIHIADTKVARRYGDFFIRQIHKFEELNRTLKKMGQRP
UniProt Q9UBQ5: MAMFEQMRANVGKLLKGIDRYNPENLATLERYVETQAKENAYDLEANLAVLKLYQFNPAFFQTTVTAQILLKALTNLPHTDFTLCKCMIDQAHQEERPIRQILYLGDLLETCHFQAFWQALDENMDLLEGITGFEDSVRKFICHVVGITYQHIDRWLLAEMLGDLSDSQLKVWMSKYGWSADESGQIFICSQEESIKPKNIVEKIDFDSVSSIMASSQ

Target: TAP-MNV VPg (murine norovirus (MNV)) (UniProt Q80J95)
Assay: affinity purification with mass spectrometry; large scale tandem affinity purification of TAP-MNV VPg from induced 293 cells (CdCl2-inducible pMEP4 or tetracycline-inducible pcDNA4:TO, the latter with and without ribonuclease); SDS-PAGE, trypsin, mass spectrometry; proteins found with the TAP tag alone removed

Substance | binding
eIF3 subunit E (from UniProt P60228 1-445) | binds
eIF3 subunit B (from UniProt P55884 1-814) | binds
eIF4AII (from UniProt Q14240 1-407) | binds
eIF3 subunit H (from UniProt O15372 1-352) | binds
eIF3 subunit C (from UniProt Q99613 1-913) | binds
eIF3 subunit D (from UniProt O15371 1-548) | binds
eIF3 subunit F (from UniProt O00303 1-357) | binds
eIF3 subunit I (from UniProt Q13347 1-325) | binds
eIF4GII (from UniProt O43432 1-1585) | binds
eIF3 subunit G (from UniProt O75821 1-320) | binds
eIF3 subunit L (from UniProt Q9Y262 1-564) | binds
eIF3 subunit K (from UniProt Q9UBQ5 1-218) | binds

No constants are given. Whether binding was seen depends on the method and setting. In cells and extracts the contact can be indirect. Here binding means that the protein was enriched with, or labelled near, the bait; the list need not be complete.
